# Measured values reported in PubChem BioAssay AID540276 (National Center for Advancing Translational Sciences (NCATS), 2011).
# Among all 300,000 compounds or so, about 5,400 (1.8%) were called active. Inconclusive means that the source gave no clear call. Such entries were picked first, then a sample of the others. Calls follow the shape of the full dose curve; tested in HEK293 cells. Potencies beside an inconclusive call are fits to weak or partial responses and may not hold up.
# Assay: qHTS for inhibitors of binding or entry into cells for Marburg Virus
# Conditions: Marburg virus pseudotyped entry inhibition, cell reporter; activity change, negative = inhibition: at 37.8 µM (top of the series) unless noted
# % is scaled to controls: 0 for no effect and ±100 for the full control effect; potency is read from the fitted curve at half-maximal effect.
Compound,"activity change, negative = inhibition",Potency
CCOc1ccccc1NC(=O)c1cc(=O)c2ccc(C)cc2o1,inactive: 6.03% [at 46.1 µM],
CC(=O)c1c(N2CCOCC2)nc2ccc(Cl)cc2c1-c1ccccc1,,"inconclusive: 2.82 µM [inhibitor, full curve]"
FC(c1nc2ccccc2[nH]1)C(F)(F)F (stereo not given),inactive: -4.72% [at 46.1 µM],
Cc1cc(Br)ccc1NC(=O)CN1C(=O)CCC1=O,inactive: -1.65%,
COc1ccc(C(=O)OCC(=O)c2ccc(S(=O)(=O)N3CCCCC3)cc2)c(OC)c1,,"inconclusive: 20 µM [inhibitor, partial curve, poor fit]"
Cc1ccc(-c2sc(-c3ccccc3)nc2CC(=O)Nc2ccccc2F)cc1,,"inconclusive: 0.316 µM [inhibitor, partial curve, poor fit]"
CCN(CC)c1cc(C)c2ccccc2n1,inactive: -1.39%,
Cc1ccccc1CS(=O)(=O)c1nnc([C@H](CC(C)C)NC(=O)OC(C)(C)C)o1,,"inconclusive: 18.3 µM [inhibitor, single point]"
CCOC(=O)C1(CC2CC2)CCN(C(=O)c2cc(OC)nc3ccccc23)CC1,,"inconclusive: 35.5 µM [inhibitor, single point]"
CN(C)c1ccc(C(=O)n2nnc3ccccc32)cc1,inactive: 19%,
COc1ccc(S(=O)(=O)N(CC(=O)NCCC(C)C)c2ccccc2)cc1OC,,"inconclusive: 17.8 µM [inhibitor, single point]"
C=CCN1C(=O)NC(=O)/C(=C\c2ccc(-c3ccccc3[N+](=O)[O-])o2)C1=O,inactive: -13.9% [at 46.1 µM],
CC(C)c1ccccc1NC(=O)COC(=O)CCN1C(=O)/C(=C\C=C\c2ccccc2)SC1=S,,"inconclusive: 1.78 µM [inhibitor, single point]"
COc1ccccc1C(=O)NC(CCSC)C(=O)NC1CCCCCC1 (stereo not given),,"inconclusive: 15.8 µM [inhibitor, single point]"
N/C(=N\OC(=O)COc1ccc(Cl)cc1Br)c1ccncc1,inactive: 19.4% [at 46.1 µM],
COc1cccc(/C=C/c2nc(C#N)c(NCCN(C)C)o2)c1,inactive: -27.5% [at 46.1 µM],
C=CCn1c(=O)c2ccccc2n2c(SCC(=O)Nc3sc(C(=O)N(CC)CC)c(C)c3C(=O)OCC)nnc12,,"inconclusive: 23.1 µM [inhibitor, single point]"
Cc1cccc(/C(N)=N/OC(=O)N2CCOCC2)c1,,active: 23.1 µM

# Not a retest: entries from further up.
Compound,"activity change, negative = inhibition",Potency
CCOc1ccccc1NC(=O)c1cc(=O)c2ccc(C)cc2o1,inactive: 6.03% [at 46.1 µM],
CC(=O)c1c(N2CCOCC2)nc2ccc(Cl)cc2c1-c1ccccc1,,"inconclusive: 2.82 µM [inhibitor, full curve]"
FC(c1nc2ccccc2[nH]1)C(F)(F)F (stereo not given),inactive: -4.72% [at 46.1 µM],

# Later entries.

Compound,"activity change, negative = inhibition",Potency
COc1ccc(Cn2c(CCC(=O)NCc3cccc(Cl)c3)nc3cccnc32)cc1,inactive: 5.92% [at 46.1 µM],
COc1cccc(OCc2cc(C(=O)N(C)Cc3nc(C)cs3)no2)c1,inactive: -16.4%,
CC(=O)Nc1ccc(S(=O)(=O)N2CCN(C3CCCCCCC3)CC2)cc1,,"inconclusive: 14.6 µM [inhibitor, partial curve, poor fit]"
CC1CC(C)CN(c2ncnc3c2cnn3C)C1 (stereo not given),inactive: -2.82% [at 46.1 µM],
Cc1ccc(/C(N)=N/OC(=O)c2ccc3ccccc3c2)cc1,,"inconclusive: 31.6 µM [inhibitor, single point]"
O=C(CSc1nccn1Cc1ccco1)Nc1ccc(F)cc1,,"inconclusive: 6.31 µM [inhibitor, single point]"
Cc1ccc(S(=O)(=O)N[C@H](C(=O)N2CCC(C(=O)NCC(=O)O)CC2)C(C)C)cc1,,"inconclusive: 1.58 µM [inhibitor, partial curve, poor fit]"
CC(=O)Nc1ccc(NC(=O)CN2CCN(c3ccccn3)CC2)cc1,inactive: 8.08%,
N#C/C(C(=O)c1ccccc1)=C1/CCCCCN1,inactive: -6.5% [at 46.1 µM],
CCOC(=O)n1cnc2nc(N)nc(SC)c21,,"inconclusive: 0.562 µM [activator, partial curve, poor fit]"
COc1ccc(Cn2c(=O)[nH]c3cc(C(=O)NCCCN4CCCCC4)ccc3c2=O)cc1,,"inconclusive: 18.3 µM [inhibitor, single point]"
Fc1ccccc1-c1ccc(/C=N/Nc2nc3ccccc3[nH]2)o1,,"inconclusive: 29.1 µM [inhibitor, single point]"
Cc1ccc(CN(C(=O)c2csnn2)C(C(=O)NC2CCCC2)c2ccco2)cc1 (stereo not given),,"inconclusive: 6.31 µM [inhibitor, full curve]"
COc1ccc(NC(=O)c2cc(S(=O)(=O)N3CCS(=O)(=O)CC3)ccc2Cl)cc1,,"inconclusive: 7.08 µM [inhibitor, partial curve, poor fit]"
Cn1cccc1C(=O)NC(=O)COC(=O)CNS(=O)(=O)c1ccc(Br)cc1,,"inconclusive: 12.6 µM [activator, partial curve, poor fit]"
COc1ccc(-c2cn3cc(Br)cnc3n2)cc1,,"inconclusive: 3.16 µM [activator, partial curve, poor fit]"
O=C(O)c1ccc(N2C(=O)Nc3ccccc3N2O)cc1,,"inconclusive: 39.8 µM [inhibitor, partial curve, poor fit]"
